This assay addresses T1, Pbp1-4×FLAG (C. neoformans) (UniProt J9VND4).
T1 sequence: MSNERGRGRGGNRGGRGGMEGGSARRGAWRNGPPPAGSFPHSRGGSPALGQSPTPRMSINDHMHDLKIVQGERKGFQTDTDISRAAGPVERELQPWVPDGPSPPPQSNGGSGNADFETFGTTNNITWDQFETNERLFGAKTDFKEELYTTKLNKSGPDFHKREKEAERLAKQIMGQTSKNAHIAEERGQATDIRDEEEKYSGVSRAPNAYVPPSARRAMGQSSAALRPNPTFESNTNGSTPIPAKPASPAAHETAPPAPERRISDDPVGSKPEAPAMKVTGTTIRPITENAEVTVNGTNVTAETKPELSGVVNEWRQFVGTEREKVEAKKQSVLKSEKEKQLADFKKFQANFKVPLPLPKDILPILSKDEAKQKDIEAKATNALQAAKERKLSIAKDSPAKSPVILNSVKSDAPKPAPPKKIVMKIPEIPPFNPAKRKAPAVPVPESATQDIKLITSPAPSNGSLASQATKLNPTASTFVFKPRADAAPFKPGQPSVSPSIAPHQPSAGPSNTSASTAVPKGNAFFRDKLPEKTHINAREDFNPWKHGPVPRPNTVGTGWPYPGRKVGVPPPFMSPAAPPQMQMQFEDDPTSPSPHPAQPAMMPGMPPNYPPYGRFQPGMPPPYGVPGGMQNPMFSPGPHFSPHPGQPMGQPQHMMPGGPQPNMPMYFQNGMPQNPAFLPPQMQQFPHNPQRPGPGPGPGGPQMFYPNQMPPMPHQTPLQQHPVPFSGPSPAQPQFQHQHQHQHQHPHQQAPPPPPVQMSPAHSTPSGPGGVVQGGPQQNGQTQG
In words: affinity purification with mass spectrometry; anti-FLAG M2 affinity gel on lysate of HP181 (Pbp1-4xFLAG), untagged H99 as control; cells grown at 30°C then 1 h at 37°C; lysis buffer 50 mM Tris-HCl pH 7.5, 150 NaCl, 0.5 mM EDTA, 0.5% Triton X-100; 4°C; one Coomassie-stained band seen only with HP181 was excised, digested with trypsin and analysed by LC-MS/MS.

Results are given in words; binding and its absence hold for the method and conditions named. In cells and extracts the contact can be indirect. Here binding means that the protein was enriched with, or labelled near, the bait; the list need not be complete. Tags and fused reporters may be left off the sequences shown.

B1: Spt16 (protein, UniProt J9VUL6 1-1034)
chain: MSDIRLDSATFFKRAAKIFDSWEKPTGDTQALEDIDAIAIILGDPNDEVASYTKTTALQLWLLGYEFPSTLMVFEKSPRKITFVCGSSKAKLIRQLQPSNGIEIDVKVRSKDATAAKETMEEVVASLNGKFGSLPKDRPIGKLVDEWNSAVETKGGLEVVDVAIPISAVLAEKDGEELKTIITSAKLTSTVMINYFKSKMESIIDRGTKMSHEALAQLVEEKIGNEEKGPDMKLWNKNPSLGEIDFASSEFVYSPVIQSGGKYDLKVTAASNNDNLKPGIILANMGIRYKNYCSNMGRTFLISPSKKQESQYTTLLEVRKEALALLKTGAVASDVYTSVHRSLETKNGTLADSFLKNLGFATGMEYRDSSFLLNAKNNRELKENMVLVLTIGVTDLPDSKNKGKTYSLLLSDTVKVGQNGAAVLTEGCTRLSDVVMDMEEEEEEDVKPQIDKKPKINNSPKKPRSSTVGGRVLNAKTRGANREQATQTTAEKIKTNQQRLHAQLNADGVKRWEADAGGKNGAQQKVVKRYESYRREEQLPRAVEDRRIYVDEQRQSVVLPINGYAVPYHISTIKNVTKTEESNHMVLRINFQSPGQIAGKKEDMPFEDPDANFIRSVSFRSQDLRHMLKVYEAITALKKAAVKRETERKELADVIEQEKLIEVKGRHPYVLKNVFPRPGPEGKKTDGNVEIHQNGIRFRPDGPASKIDILFSNIKHLFFQPSEKELIVIIHVHLKAPIMLGKKKTSDVQFYREVADMSFDETGGKKRRARYGDEDEIEQEQEDRKRRAELDKLFHDFARRIETAAQAQQFELEVDVPFRELGFNGVPHKSIVALLPTTNCLIHISELPFTVITLSEVEIVHLERVQFGLKNFDMVFVLQDLKKPPIHINSIPVAHLDNVKEWLDSCDVPISEGPVNLSWPAIMKTVNEDPHAFYAEGGWNFLTGSGSDDGSEESEEGSEFEGDSDVFDESSGSDEDSESDFEGDSDSGTAESLSDEGEDWDELERKAKRADEKHRTDRGDSDEDGKKKKKGSRR
In the case of B1, the binding entry was “binds”.

These data come from PMC6811503.
